The other results are listed elsewhere or left out. Single values are uncertain, as repeats are few or missing.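 The apoptosis fraction was the count of cleaved-PARP antibody-stained nuclei relative to all DNA-stained nuclei, imaged in 1,536-well plates. Screening doses were set so most cells survived, and baseline and induced cleaved-PARP levels vary greatly across cell lines.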
Columns and labels:
Test in all cases: cleaved PARP positive nuclei fraction relative to DMSO control; melanoma cells; higher = more apoptosis
Settings in all cases: library dose: low library concentration; 72 h
MZ2-MEL = system: MZ2-MEL
MeWo = system: MeWo
RPMI7951 = system: RPMI7951
RVH-421 = system: RVH-421
SkMel28 = system: SkMel28
SkMel2 = system: SkMel2
SkMel30 = system: SkMel30
SkMel5 = system: SkMel5
UACC257 = system: UACC257
UACC62 = system: UACC62
WM115 = system: WM115
WM1716 = system: WM1716
WM1745 = system: WM1745
WM3526 = system: WM3526
WM3619 = system: WM3619
WM451Lu = system: WM451Lu

| Structure (SMILES) | cleaved PARP positive nuclei fraction (MZ2-MEL) [%] | cleaved PARP positive nuclei fraction (MeWo) [%] | cleaved PARP positive nuclei fraction (RPMI7951) [%] | cleaved PARP positive nuclei fraction (RVH-421) [%] | cleaved PARP positive nuclei fraction (SkMel28) [%] | cleaved PARP positive nuclei fraction (SkMel2) [%] | cleaved PARP positive nuclei fraction (SkMel30) [%] | cleaved PARP positive nuclei fraction (SkMel5) [%] | cleaved PARP positive nuclei fraction (UACC257) [%] | cleaved PARP positive nuclei fraction (UACC62) [%] | cleaved PARP positive nuclei fraction (WM115) [%] | cleaved PARP positive nuclei fraction (WM1716) [%] | cleaved PARP positive nuclei fraction (WM1745) [%] | cleaved PARP positive nuclei fraction (WM3526) [%] | cleaved PARP positive nuclei fraction (WM3619) [%] | cleaved PARP positive nuclei fraction (WM451Lu) [%] |
| --- | --- | --- | --- | --- | --- | --- | --- | --- | --- | --- | --- | --- | --- | --- | --- | --- |
| Cn1cc(C2=C(c3cn(C4CCN(Cc5ccccn5)CC4)c4ccccc34)C(=O)NC2=O)c2ccccc21 [Enzastaurin] + N#Cc1c(O)c2c(-c3ccc(-c4ccccc4O)cc3)csc2[nH]c1=O [A769662] (first compound 0.8 µM, partner dose 2 µM) | 129 | 67.7 | 69 | 52 | 88.3 | 284 | 94.2 | 67.2 | 88.5 | 91.7 | 34.1 | 483 | 104 | 302 | 69.4 | 19.8 |
| CS(=O)(=O)c1ccc(C(=O)Nc2ccc(Cl)c(-c3ccccn3)c2)c(Cl)c1 [vismodegib] + C[As](C)SC[C@H](NC(=O)CC[C@H](N)C(=O)O)C(=O)NCC(=O)O [Darinaparsin] (first compound 1 µM, partner dose 0.4 µM) | 94.8 | 82.6 | 80.5 | 39.5 | 76.3 | 179 | 156 | – | – | 26 | 23.4 | 30.2 | 78.1 | 32.9 | 84.1 | 61.3 |
| CC1(C)CCC(c2ccc(Cl)cc2)=C(CN2CCN(c3ccc(C(=O)NS(=O)(=O)c4ccc(N[C@H](CCN5CCOCC5)CSc5ccccc5)c(S(=O)(=O)C(F)(F)F)c4)cc3)CC2)C1 + Cn1cc(C2=C(c3cn(C4CCN(Cc5ccccn5)CC4)c4ccccc34)C(=O)NC2=O)c2ccccc21 [Enzastaurin] (first compound 0.4 µM, partner dose 0.8 µM) | 245 | 187 | 158 | 97.9 | 74.6 | 136 | 172 | – | – | 37.5 | 177 | 180 | 945 | 162 | 87.1 | 536 |
| COc1cc([C@@H]2c3cc4c(cc3[C@@H](O[C@@H]3O[C@@H]5CO[C@@H](C)O[C@H]5[C@H](O)[C@H]3O)[C@H]3COC(=O)[C@H]23)OCO4)cc(OC)c1O [etoposide] + C[As](C)SC[C@H](NC(=O)CC[C@H](N)C(=O)O)C(=O)NCC(=O)O [Darinaparsin] (first compound 0.02 µM, partner dose 0.4 µM) | 20 | 194 | 86 | 178 | 85.1 | 88.1 | 55.2 | – | – | 63.9 | 77.9 | 63.6 | 89.5 | 122 | 163 | 27 |
| NC(=O)c1ccc(N(C(N)=O)c2c(F)cccc2F)nc1-c1ccc(F)cc1F + O=C(Oc1ccc([N+](=O)[O-])cc1)N1CCC(C(O)(c2ccc3c(c2)OCO3)c2ccc3c(c2)OCO3)CC1 [JZL184] (first compound 0.4 µM, partner dose 1 µM) | 172 | 53 | 92.6 | 220 | 127 | 120 | 38.6 | 129 | 42 | 152 | 71.8 | 49.5 | 97.1 | 89.4 | 87.9 | 36 |
| CC(=O)c1c(C)c2cnc(Nc3ccc(N4CCNCC4)cn3)nc2n(C2CCCC2)c1=O [palbociclib] + O=C(Oc1ccc([N+](=O)[O-])cc1)N1CCC(C(O)(c2ccc3c(c2)OCO3)c2ccc3c(c2)OCO3)CC1 [JZL184] (first compound 0.04 µM, partner dose 1 µM) | 47 | 42.7 | 44.9 | 108 | 151 | 74.7 | 425 | 98.8 | 150 | 162 | 114 | 300 | 119 | 117 | 116 | 44.5 |
| Cn1cc(C2=C(c3cn(C4CCN(Cc5ccccn5)CC4)c4ccccc34)C(=O)NC2=O)c2ccccc21 [Enzastaurin] + C[C@]1(O)C[C@@H](c2nc(-c3ccc4ccc(-c5ccccc5)nc4c3)c3c(N)nccn32)C1 [OSI906] (first compound 0.8 µM, partner dose 0.4 µM) | 29.5 | 149 | 100 | 186 | 78.9 | 89.1 | 32.7 | – | – | 219 | 84.4 | 96.8 | 94 | 36 | 97.1 | 41.8 |
| N.N.[Cl][Pt][Cl] [cisplatin] + COc1ccc2c(c1)CCC1C2CCC2(C)C(NCCCCCCN3C(=O)C=CC3=O)CCC12 [U73122] (first compound 1.6 µM, partner dose 0.4 µM) | 99.8 | 100 | 79.3 | 76.6 | 71.5 | 58.9 | 28.4 | 78.3 | 182 | 102 | 237 | 61.9 | 89 | 90.1 | 116 | 37.9 |
| CC1(C)CCC(c2ccc(Cl)cc2)=C(CN2CCN(c3ccc(C(=O)NS(=O)(=O)c4ccc(N[C@H](CCN5CCOCC5)CSc5ccccc5)c(S(=O)(=O)C(F)(F)F)c4)cc3)CC2)C1 + C/C(O)=C(\C#N)C(=O)Nc1cc(Br)ccc1Br [LFM-A13] (first compound 0.4 µM, partner dose 2 µM) | 373 | 765 | 201 | 136 | 368 | 258 | 47.7 | 145 | 561 | 1130 | 219 | 432 | 1040 | 202 | 108 | 133 |
| Cc1ccc(Nc2nccc(N(C)c3ccc4c(C)n(C)nc4c3)n2)cc1S(N)(=O)=O [Pazopanib] + C[As](C)SC[C@H](NC(=O)CC[C@H](N)C(=O)O)C(=O)NCC(=O)O [Darinaparsin] (first compound 0.4 µM, partner dose 0.4 µM) | 29.7 | 125 | 164 | 89.2 | 87.2 | 169 | 52 | – | – | 94.8 | 29.4 | 247 | 100 | 142 | 91.6 | 20 |
| N.N.[Cl][Pt][Cl] [cisplatin] + NC(=O)Nc1cc(-c2cccc(F)c2)sc1C(=O)N[C@H]1CCCNC1 [AZD7762] (first compound 1.6 µM, partner dose 0.02 µM) | 106 | 135 | 41.6 | 108 | 147 | 64.5 | 59.7 | 120 | 307 | 79.3 | 145 | 47.4 | 91 | 62.2 | 102 | 128 |
| N.N.[Cl][Pt][Cl] [cisplatin] + COc1ccc(COc2ccc(Cc3cnc(N)nc3N)cc2OC)cc1 [GW2580] (first compound 1.6 µM, partner dose 1 µM) | 81 | 44.5 | 129 | 204 | 37.5 | 140 | 33.5 | 67.4 | 57.3 | 82.3 | 124 | 99.1 | 75.6 | 142 | 71.3 | 116 |
| CCCS(=O)(=O)Nc1ccc(F)c(C(=O)c2c[nH]c3ncc(Cl)cc23)c1F + C/C(O)=C(\C#N)C(=O)Nc1cc(Br)ccc1Br [LFM-A13] (first compound 0.08 µM, partner dose 2 µM) | 70 | 38.5 | 44.4 | 169 | 229 | 79.6 | 62.8 | 144 | 52.5 | 191 | 97.4 | 148 | 177 | 169 | 98.4 | 69.5 |
| N.N.[Cl][Pt][Cl] [cisplatin] + CN(C)S(=O)(=O)c1ccc2c(c1)/C(=C/c1cc3c([nH]1)CCCC3)C(=O)N2 [SU6656] (first compound 1.6 µM, partner dose 0.4 µM) | 50.3 | 182 | 105 | 110 | 87.3 | 92.6 | 32.9 | 47.7 | 137 | 36.3 | 109 | 76.9 | 95 | 66.2 | 92.3 | 122 |
| Cn1cc(C2=C(c3cn(C4CCN(Cc5ccccn5)CC4)c4ccccc34)C(=O)NC2=O)c2ccccc21 [Enzastaurin] + Nc1ncn([C@H]2C[C@H](O)[C@@H](CO)O2)c(=O)n1 [decitabine] (first compound 0.8 µM, partner dose 0.1 µM) | 62.9 | 116 | 145 | 179 | 77.7 | 103 | 89 | – | – | 141 | 155 | 77.6 | 104 | 80.3 | 89.4 | 95.6 |
| COc1ccc(C2=N[C@@H](c3ccc(Cl)cc3)[C@@H](c3ccc(Cl)cc3)N2C(=O)N2CCNC(=O)C2)c(OC(C)C)c1 [Nutlin-3] + N.N.[Cl][Pt][Cl] [cisplatin] (first compound 0.1 µM, partner dose 1.6 µM) | 105 | 123 | 101 | 180 | 51.8 | 15.8 | 105 | – | – | 232 | 69 | 103 | 91.1 | 39.4 | 93.3 | 48.7 |
| N.N.[Cl][Pt][Cl] [cisplatin] + O=C(CCCCCCC(=O)Nc1ccccc1)NO [vorinostat] (first compound 1.6 µM, partner dose 0.08 µM) | 83.8 | 86.3 | 105 | 101 | 74.7 | 49 | 60.5 | 110 | 71.4 | 101 | 174 | 138 | 111 | 109 | 90.9 | 87.4 |
| NC1(c2ccc(-c3nc4ccn5c(=O)[nH]nc5c4cc3-c3ccccc3)cc2)CCC1 + Cc1cc(SCc2sc(-c3ccc(C(F)(F)F)c(F)c3)nc2C)ccc1OCC(=O)O [GW0742] (first compound 0.4 µM, partner dose 2 µM) | 131 | 120 | 82.9 | 115 | 147 | 35.1 | 18.8 | 160 | 220 | 208 | 330 | 80.2 | 90.7 | 269 | 105 | 120 |
| O=C(O)[C@@H]1[O][Sb](=[O])([O][Sb]2(=[O])[O][C@H]([C@H](O)CO)[C@H](O)[C@H](C(=O)O)[O]2)[O][C@H]([C@H](O)CO)[C@@H]1O (stereo not given in full) [stibogluconate] + O=C(Oc1ccc([N+](=O)[O-])cc1)N1CCC(C(O)(c2ccc3c(c2)OCO3)c2ccc3c(c2)OCO3)CC1 [JZL184] (first compound 2 µM, partner dose 1 µM) | 25.8 | 41.1 | 56.1 | 98.2 | 143 | 108 | 38.1 | 80.3 | 171 | 282 | 110 | 333 | 82.1 | 78.2 | 99.7 | 37.5 |

Quoted from the listing:
cleaved PARP positive nuclei fraction (SkMel5) [%] with N.N.[Cl][Pt][Cl] [cisplatin] + COc1ccc2c(c1)CCC1C2CCC2(C)C(NCCCCCCN3C(=O)C=CC3=O)CCC12 [U73122] (first compound 1.6 µM, partner dose 0.4 µM) is entered as 78.3
cleaved PARP positive nuclei fraction (WM115) [%] with COc1ccc(C2=N[C@@H](c3ccc(Cl)cc3)[C@@H](c3ccc(Cl)cc3)N2C(=O)N2CCNC(=O)C2)c(OC(C)C)c1 [Nutlin-3] + N.N.[Cl][Pt][Cl] [cisplatin] (first compound 0.1 µM, partner dose 1.6 µM) is entered as 69

Source: the supplement of paper PMC4604168 (melanoma cell lines)
